What was measured:
NHL samples = test: Identification and label-free LC-MS quantitation of HLA-presented peptides: presentation profile/score, NHL vs normal tissues; design: species or system human; key: very highly over-presented on tumors compared to a panel of normal tissues (+++); highly over-presented on tumors compared to a panel of normal tissues (++); over-presented on tumors compared to a panel of normal tissues (+); details: NHL tumors compared to a panel of normal tissues
[1] = system: other tumor types (tumor samples vs normal tissues); test: LC-MS detection / over-presentation of peptides on additional tumor types; design: species or system human; details: for Other relevant organs/diseases: additional tumor types on which the peptide was found: over-presented on more than 5% of measured tumor samples, or presented on more than 5% with ratio of geometric means tumor vs normal tissues larger than 3; for Other relevant organs / diseases (additional tumor types with over-presentation): over-presented on >5% of measured tumor samples, or presented on >5% with ratio of geometric means tumor vs normal >3

| Substance | Peptide Presentation (NHL samples) | Other relevant organs/diseases [1] | Other relevant organs / diseases (additional tumor types with over-presentation) [1] |
| --- | --- | --- | --- |
| 139 (FLASPLVAI; listed as Homo sapiens) [compound 139] | +++ |  |  |
| 191 (GLSDISAQV; listed as Homo sapiens) [compound 191] | +++ | CLL, Melanoma, Esophageal Cancer, OC | AML |
| 303 (FVWEASHYL; listed as Homo sapiens) [compound 303] | ++ | NSCLC, CLL, Esophageal Cancer, Uterine Cancer, Gallbladder Cancer, Bile Duct Cancer | AML, HNSCC |
| 249 (VLLESLVEI; listed as Homo sapiens) [compound 249] | +++ | Melanoma, Gallbladder Cancer, Bile Duct Cancer |  |
| 200 (YLLDFEDRL; listed as Homo sapiens) [compound 200] | + | CLL |  |
| 31 (KLYDEESLL; listed as Homo sapiens) [compound 31] | +++ | CLL, AML, Melanoma, Esophageal Cancer, Uterine Cancer |  |
| 7 (NLLGMIFSM; listed as Homo sapiens) [compound 7] | +++ | CLL, AML, Melanoma, Urinary bladder cancer |  |
| 92 (KLLFEIASA; listed as Homo sapiens) [compound 92] | +++ | CLL, AML |  |
| 156 (KMLEDDLKL; listed as Homo sapiens) [compound 156] | +++ |  |  |
| 123 (ALLSAFVQL; listed as Homo sapiens) [compound 123] | ++ |  |  |
| 144 (GLITQVDKL; listed as Homo sapiens) [compound 144] | +++ | AML | Esophageal Cancer |
| 190 (GLIELVDQL; listed as Homo sapiens) [compound 190] | ++ | HCC, CLL, AML, Melanoma, Uterine Cancer |  |
| 207 (GLVGLLEQA; listed as Homo sapiens) [compound 207] | ++ | SCLC, HCC, CLL, AML, BRCA, Melanoma, OC, Uterine Cancer, Gallbladder Cancer, Bile Duct Cancer |  |
| 272 (KLDHTLSQI; listed as Homo sapiens) [compound 272] | +++ |  |  |
| 145 (GLLHEVVSL; listed as Homo sapiens) [compound 145] | +++ |  |  |
| 142 (FLYEDSKSVRL; listed as Homo sapiens) [compound 142] | +++ |  |  |
| 150 (ILSEKEYKL; listed as Homo sapiens) [compound 150] | +++ |  |  |
| 298 (ALTDVILCV; listed as Homo sapiens) [compound 298] | + |  |  |
| 75 (AALKYIPSV; listed as Homo sapiens) [compound 75] | +++ |  |  |
| 231 (IVMGAIPSV; listed as Homo sapiens) [compound 231] | + |  |  |
| 18 (KLTDQPPLV; listed as Homo sapiens) [compound 18] | +++ |  |  |
| 276 (NMISYVVHL; listed as Homo sapiens) [compound 276] | +++ |  |  |
| 22 (ALKKHLTSV; listed as Homo sapiens) [compound 22] | +++ |  |  |
| 162 (RLADLKVSI; listed as Homo sapiens) [compound 162] | +++ |  |  |

| Substance | Peptide Presentation (NHL samples) | Other relevant organs/diseases [1] | Other relevant organs / diseases (additional tumor types with over-presentation) [1] |
| --- | --- | --- | --- |
| 159 (LLLSDSGFYL; listed as Homo sapiens) [compound 159] | +++ |  |  |
| 49 (TILGDPQILL; listed as Homo sapiens) [compound 49] | +++ |  |  |
| 137 (FIQQERFFL; listed as Homo sapiens) [compound 137] | +++ |  |  |
| 35 (SLSSERYYL; listed as Homo sapiens) [compound 35] | +++ |  |  |
| 134 (ALGRLGILSV; listed as Homo sapiens) [compound 134] | +++ |  |  |
| 275 (KLMDLEDCAL; listed as Homo sapiens) [compound 275] | +++ |  |  |
| 135 (ALTGLQFQL; listed as Homo sapiens) [compound 135] | +++ |  |  |
| 173 (VILDSVASV; listed as Homo sapiens) [compound 173] | +++ |  |  |
| 143 (TLHAVDVTL; listed as Homo sapiens) [compound 143] | +++ |  |  |
| 157 (KVLEFLAKV; listed as Homo sapiens) [compound 157] | +++ |  |  |
| 112 (FLAILPEEV; listed as Homo sapiens) [compound 112] | +++ |  |  |
| 151 (ILVKQSPML; listed as Homo sapiens) [compound 151] | +++ |  |  |
| 167 (SLFSITKSV; listed as Homo sapiens) [compound 167] | +++ |  |  |
| 170 (STIELSENSL; listed as Homo sapiens) [compound 170] | +++ |  |  |
| 176 (YLHIYESQL; listed as Homo sapiens) [compound 176] | +++ |  |  |
| 178 (YVLQGEFFL; listed as Homo sapiens) [compound 178] | +++ |  |  |
| 113 (FVIDSFEEL; listed as Homo sapiens) [compound 113] | +++ |  |  |
| 153 (KLLKGIYAI; listed as Homo sapiens) [compound 153] | +++ |  |  |
| 160 (LLPPPSPAA; listed as Homo sapiens) [compound 160] | +++ |  |  |
| 235 (SLDVYELFL; listed as Homo sapiens) [compound 235] |  | CRC, BRCA, Melanoma, Esophageal Cancer, OC, Urinary bladder cancer, Uterine Cancer, Gallbladder Cancer, Bile Duct Cancer | HNSCC |
| 154 (KLMNIQQQL; listed as Homo sapiens) [compound 154] | +++ |  |  |
| 196 (TLALAMIYL; listed as Homo sapiens) [compound 196] | ++ |  |  |
| 72 (TLQEETAVYL; listed as Homo sapiens) [compound 72] | +++ |  |  |
| 234 (NLQRTVVTV; listed as Homo sapiens) [compound 234] |  | RCC, CLL, Uterine Cancer |  |

| Substance | Peptide Presentation (NHL samples) | Other relevant organs/diseases [1] | Other relevant organs / diseases (additional tumor types with over-presentation) [1] |
| --- | --- | --- | --- |
| 155 (KLMTSLVKV; listed as Homo sapiens) [compound 155] | +++ |  |  |
| 136 (FIFGIVHLL; listed as Homo sapiens) [compound 136] | +++ |  |  |
| 89 (GLTALHVAV; listed as Homo sapiens) [compound 89] | +++ |  |  |
| 172 (TLQDSLEFI; listed as Homo sapiens) [compound 172] | +++ |  |  |
| 48 (KILDEDLYI; listed as Homo sapiens) [compound 48] |  | CLL, BRCA, Melanoma, Esophageal Cancer, Gallbladder Cancer, Bile Duct Cancer | AML, HNSCC |
| 198 (GLLSAVSSV; listed as Homo sapiens) [compound 198] |  | AML, Gallbladder Cancer, Bile Duct Cancer | HNSCC |
| 147 (GLSEYQRNFL; listed as Homo sapiens) [compound 147] | +++ |  |  |
| 250 (VLTNVGAAL; listed as Homo sapiens) [compound 250] |  | CLL, Uterine Cancer |  |
| 278 (FLLFINHRL; listed as Homo sapiens) [compound 278] |  | CLL |  |
| 177 (YLYEAEEATTL; listed as Homo sapiens) [compound 177] | +++ |  |  |
| 269 (VLQNVAFSV; listed as Homo sapiens) [compound 269] | +++ |  |  |
| 248 (NLLEQFILL; listed as Homo sapiens) [compound 248] |  | NSCLC, SCLC, RCC, Brain Cancer, CRC, HCC, CLL, AML, Melanoma, Urinary bladder cancer, Uterine Cancer | HNSCC |
| 175 (VMESILLRL; listed as Homo sapiens) [compound 175] | +++ |  |  |
| 230 (IMDDDSYGV; listed as Homo sapiens) [compound 230] |  | CLL |  |
| 193 (SLADSMPSL; listed as Homo sapiens) [compound 193] |  | BRCA, Uterine Cancer |  |
| 304 (ALIRLDDLFL; listed as Homo sapiens) [compound 304] |  | RCC, CLL, Melanoma |  |
| 73 (YLGEEYPEV; listed as Homo sapiens) [compound 73] |  | SCLC, CRC, CLL, Melanoma, Uterine Cancer | HNSCC |
| 39 (QLLPQGIVPAL; listed as Homo sapiens) [compound 39] |  | CLL, BRCA, OC, Urinary bladder cancer, Uterine Cancer | HCC |
| 210 (FLAEQFEFL; listed as Homo sapiens) [compound 210] |  | CLL |  |
| 58 (QLAPFLPQL; listed as Homo sapiens) [compound 58] |  | OC, Urinary bladder cancer |  |
| 140 (FLFEDFVEV; listed as Homo sapiens) [compound 140] | +++ |  |  |
| 42 (YLQDLVERA; listed as Homo sapiens) [compound 42] |  | CLL, Uterine Cancer |  |

— US10702592B2, “Peptides and combination of peptides for use in immunotherapy against NHL and other cancers” (Immatics Biotechnologies GmbH, priority 2016, dated 2020)
